From the supplement of paper PMC10849652
The other results are listed elsewhere or left out.

The chains behind the UniProt entries cited, without tags or fusion partners. Where a name states a change or a piece, a line headed by the entry shows the natural chain unless it says otherwise.
UniProt Q9Y4W2: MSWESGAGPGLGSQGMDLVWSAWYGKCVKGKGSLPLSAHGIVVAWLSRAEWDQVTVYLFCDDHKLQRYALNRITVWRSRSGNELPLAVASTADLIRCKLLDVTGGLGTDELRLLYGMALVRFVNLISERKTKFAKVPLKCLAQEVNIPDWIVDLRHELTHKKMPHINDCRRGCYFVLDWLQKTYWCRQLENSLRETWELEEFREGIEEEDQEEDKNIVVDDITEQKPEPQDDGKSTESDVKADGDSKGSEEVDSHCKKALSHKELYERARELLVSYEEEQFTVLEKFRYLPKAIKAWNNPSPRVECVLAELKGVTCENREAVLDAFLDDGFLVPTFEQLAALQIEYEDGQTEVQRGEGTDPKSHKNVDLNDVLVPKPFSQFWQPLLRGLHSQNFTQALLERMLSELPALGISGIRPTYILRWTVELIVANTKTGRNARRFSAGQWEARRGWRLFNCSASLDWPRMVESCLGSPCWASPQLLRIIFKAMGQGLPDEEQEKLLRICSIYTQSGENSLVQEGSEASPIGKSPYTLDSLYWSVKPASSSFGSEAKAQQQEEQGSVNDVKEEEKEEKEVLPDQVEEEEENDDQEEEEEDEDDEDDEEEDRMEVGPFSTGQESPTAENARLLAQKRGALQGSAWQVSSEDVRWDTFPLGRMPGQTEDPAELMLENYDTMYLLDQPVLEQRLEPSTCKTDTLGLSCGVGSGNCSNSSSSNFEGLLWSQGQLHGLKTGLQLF
UniProt Q93052: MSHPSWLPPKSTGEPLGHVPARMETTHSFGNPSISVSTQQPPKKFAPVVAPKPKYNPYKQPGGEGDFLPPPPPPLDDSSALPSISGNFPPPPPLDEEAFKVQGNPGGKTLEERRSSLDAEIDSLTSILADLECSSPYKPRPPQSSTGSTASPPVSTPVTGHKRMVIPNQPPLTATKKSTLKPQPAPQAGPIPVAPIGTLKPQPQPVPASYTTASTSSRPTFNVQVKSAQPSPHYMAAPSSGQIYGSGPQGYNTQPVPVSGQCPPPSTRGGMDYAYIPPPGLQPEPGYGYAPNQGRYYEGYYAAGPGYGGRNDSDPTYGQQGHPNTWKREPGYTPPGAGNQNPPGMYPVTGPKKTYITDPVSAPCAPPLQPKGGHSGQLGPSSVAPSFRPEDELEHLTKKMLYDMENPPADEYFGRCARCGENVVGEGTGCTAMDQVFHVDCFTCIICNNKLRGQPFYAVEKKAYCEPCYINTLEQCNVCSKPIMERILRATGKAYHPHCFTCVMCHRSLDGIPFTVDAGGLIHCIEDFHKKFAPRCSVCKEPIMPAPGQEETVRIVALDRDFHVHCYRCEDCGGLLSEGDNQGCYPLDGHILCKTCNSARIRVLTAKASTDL
UniProt Q15334: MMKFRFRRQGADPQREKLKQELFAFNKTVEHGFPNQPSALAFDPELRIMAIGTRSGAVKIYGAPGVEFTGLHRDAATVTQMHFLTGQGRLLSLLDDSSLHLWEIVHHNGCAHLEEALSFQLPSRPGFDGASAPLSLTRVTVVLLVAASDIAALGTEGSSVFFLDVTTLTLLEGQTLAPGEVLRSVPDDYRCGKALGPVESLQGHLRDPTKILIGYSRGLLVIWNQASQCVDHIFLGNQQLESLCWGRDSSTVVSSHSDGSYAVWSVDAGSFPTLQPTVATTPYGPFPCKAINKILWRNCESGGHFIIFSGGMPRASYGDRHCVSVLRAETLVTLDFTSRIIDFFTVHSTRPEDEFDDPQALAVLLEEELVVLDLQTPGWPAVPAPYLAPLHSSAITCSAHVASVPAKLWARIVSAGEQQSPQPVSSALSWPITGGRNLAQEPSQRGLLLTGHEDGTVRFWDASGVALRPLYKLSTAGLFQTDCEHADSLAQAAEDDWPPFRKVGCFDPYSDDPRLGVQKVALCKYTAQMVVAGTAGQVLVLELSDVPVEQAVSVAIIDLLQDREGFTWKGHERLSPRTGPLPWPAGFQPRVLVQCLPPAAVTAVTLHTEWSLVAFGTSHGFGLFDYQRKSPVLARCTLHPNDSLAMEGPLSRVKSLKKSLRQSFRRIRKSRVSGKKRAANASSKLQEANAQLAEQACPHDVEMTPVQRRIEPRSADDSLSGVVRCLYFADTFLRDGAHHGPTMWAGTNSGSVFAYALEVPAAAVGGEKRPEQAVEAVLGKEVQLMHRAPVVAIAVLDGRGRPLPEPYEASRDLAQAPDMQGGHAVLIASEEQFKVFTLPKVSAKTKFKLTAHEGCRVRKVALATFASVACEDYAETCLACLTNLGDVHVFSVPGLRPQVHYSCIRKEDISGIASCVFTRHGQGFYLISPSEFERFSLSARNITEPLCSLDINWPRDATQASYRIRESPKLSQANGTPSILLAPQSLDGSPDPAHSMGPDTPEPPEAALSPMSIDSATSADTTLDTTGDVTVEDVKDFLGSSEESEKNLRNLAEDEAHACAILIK
UniProt O60294: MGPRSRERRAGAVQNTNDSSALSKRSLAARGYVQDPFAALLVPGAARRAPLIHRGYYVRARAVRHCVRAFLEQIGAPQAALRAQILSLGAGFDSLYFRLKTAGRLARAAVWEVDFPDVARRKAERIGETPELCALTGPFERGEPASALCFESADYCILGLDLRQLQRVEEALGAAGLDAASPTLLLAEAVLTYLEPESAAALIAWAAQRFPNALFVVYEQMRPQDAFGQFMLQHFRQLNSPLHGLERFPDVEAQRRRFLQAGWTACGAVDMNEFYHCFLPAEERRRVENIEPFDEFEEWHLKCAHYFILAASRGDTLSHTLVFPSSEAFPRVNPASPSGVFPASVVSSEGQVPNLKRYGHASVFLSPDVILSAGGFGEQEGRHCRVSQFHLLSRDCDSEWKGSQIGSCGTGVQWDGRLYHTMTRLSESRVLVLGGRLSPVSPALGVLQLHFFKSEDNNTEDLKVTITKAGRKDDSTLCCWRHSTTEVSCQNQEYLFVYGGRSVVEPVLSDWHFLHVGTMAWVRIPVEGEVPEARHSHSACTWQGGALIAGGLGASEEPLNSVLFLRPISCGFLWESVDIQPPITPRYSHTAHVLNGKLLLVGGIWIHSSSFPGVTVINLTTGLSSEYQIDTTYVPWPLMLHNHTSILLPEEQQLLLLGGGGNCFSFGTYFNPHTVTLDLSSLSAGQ
UniProt O00214: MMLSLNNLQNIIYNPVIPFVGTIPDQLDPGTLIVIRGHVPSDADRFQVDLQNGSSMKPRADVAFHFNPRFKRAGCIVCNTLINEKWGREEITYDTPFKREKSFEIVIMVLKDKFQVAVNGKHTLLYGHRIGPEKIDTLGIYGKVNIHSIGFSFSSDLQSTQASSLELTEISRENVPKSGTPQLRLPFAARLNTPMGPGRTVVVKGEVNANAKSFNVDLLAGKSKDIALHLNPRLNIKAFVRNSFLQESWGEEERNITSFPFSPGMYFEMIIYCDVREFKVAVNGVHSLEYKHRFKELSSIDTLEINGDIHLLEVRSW
UniProt O95214: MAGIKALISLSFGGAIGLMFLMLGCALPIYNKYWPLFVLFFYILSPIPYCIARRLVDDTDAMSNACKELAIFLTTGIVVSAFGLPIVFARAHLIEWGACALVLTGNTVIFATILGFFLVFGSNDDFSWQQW
UniProt Q96PV6, whole entry, looked up: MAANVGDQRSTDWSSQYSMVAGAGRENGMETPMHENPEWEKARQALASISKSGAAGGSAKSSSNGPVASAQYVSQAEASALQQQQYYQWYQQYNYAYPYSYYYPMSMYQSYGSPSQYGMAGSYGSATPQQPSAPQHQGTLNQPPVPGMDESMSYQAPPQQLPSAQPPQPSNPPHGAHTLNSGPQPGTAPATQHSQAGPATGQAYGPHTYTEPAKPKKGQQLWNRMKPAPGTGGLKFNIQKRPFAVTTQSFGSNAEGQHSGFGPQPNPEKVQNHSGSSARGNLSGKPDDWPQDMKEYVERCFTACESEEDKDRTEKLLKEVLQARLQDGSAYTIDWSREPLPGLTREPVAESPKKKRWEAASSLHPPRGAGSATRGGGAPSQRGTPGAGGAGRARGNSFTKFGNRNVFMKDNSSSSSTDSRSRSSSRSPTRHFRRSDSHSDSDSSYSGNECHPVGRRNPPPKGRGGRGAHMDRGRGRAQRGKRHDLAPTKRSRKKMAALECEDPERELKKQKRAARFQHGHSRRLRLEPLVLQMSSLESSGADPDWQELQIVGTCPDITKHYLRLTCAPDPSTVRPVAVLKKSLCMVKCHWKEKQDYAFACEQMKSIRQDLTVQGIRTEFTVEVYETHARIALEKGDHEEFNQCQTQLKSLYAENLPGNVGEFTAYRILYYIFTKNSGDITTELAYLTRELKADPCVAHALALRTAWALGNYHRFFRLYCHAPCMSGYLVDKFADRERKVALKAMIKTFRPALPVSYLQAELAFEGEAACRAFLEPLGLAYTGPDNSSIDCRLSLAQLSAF
UniProt Q9NT99: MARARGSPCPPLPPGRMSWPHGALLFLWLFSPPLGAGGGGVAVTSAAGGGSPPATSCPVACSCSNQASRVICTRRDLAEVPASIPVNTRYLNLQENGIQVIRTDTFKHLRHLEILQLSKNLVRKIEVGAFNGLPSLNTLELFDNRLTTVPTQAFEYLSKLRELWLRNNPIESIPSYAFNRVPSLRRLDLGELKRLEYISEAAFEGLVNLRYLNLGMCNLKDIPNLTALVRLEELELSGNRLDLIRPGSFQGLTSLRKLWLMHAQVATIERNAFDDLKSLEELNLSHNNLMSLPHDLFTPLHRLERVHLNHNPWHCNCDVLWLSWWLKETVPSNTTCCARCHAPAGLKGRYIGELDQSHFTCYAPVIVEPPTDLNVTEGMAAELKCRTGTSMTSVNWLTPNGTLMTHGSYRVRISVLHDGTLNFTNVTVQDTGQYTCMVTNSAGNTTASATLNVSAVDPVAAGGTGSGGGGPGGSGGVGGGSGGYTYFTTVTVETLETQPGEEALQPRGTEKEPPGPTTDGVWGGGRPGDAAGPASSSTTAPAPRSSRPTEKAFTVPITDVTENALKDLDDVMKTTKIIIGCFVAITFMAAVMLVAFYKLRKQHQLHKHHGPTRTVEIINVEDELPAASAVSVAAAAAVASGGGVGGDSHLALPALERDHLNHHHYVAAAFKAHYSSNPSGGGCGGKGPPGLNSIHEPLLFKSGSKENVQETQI
UniProt Q6ZV70: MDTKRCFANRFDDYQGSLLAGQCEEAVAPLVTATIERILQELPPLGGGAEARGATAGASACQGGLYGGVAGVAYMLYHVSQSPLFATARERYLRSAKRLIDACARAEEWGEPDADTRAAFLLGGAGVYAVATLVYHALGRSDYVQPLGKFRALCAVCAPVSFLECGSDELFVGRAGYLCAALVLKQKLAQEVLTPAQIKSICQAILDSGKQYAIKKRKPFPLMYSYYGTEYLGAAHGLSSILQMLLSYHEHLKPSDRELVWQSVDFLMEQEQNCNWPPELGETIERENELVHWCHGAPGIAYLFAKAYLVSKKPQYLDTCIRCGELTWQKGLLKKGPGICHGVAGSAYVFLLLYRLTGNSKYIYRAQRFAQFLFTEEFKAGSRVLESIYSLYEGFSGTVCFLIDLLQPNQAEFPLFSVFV
UniProt Q9P244: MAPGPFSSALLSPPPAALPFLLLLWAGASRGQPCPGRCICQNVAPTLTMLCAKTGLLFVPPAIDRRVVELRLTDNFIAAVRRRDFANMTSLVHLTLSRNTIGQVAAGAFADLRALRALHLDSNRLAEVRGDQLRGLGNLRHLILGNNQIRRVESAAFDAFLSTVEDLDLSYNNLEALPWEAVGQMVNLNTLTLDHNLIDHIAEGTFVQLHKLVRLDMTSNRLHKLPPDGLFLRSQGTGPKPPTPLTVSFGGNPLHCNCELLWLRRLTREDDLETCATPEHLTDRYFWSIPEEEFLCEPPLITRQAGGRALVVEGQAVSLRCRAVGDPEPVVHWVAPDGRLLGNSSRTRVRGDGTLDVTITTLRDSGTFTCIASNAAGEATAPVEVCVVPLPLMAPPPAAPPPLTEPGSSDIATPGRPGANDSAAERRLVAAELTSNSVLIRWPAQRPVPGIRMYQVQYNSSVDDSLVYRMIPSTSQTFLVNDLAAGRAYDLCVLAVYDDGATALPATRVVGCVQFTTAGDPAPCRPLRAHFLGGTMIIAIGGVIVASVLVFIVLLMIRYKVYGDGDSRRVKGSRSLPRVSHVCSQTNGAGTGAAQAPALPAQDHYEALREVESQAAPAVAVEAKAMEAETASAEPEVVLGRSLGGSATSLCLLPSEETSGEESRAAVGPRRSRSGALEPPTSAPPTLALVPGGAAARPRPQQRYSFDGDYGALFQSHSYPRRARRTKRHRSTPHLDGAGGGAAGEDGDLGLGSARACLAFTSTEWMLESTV
UniProt P02750: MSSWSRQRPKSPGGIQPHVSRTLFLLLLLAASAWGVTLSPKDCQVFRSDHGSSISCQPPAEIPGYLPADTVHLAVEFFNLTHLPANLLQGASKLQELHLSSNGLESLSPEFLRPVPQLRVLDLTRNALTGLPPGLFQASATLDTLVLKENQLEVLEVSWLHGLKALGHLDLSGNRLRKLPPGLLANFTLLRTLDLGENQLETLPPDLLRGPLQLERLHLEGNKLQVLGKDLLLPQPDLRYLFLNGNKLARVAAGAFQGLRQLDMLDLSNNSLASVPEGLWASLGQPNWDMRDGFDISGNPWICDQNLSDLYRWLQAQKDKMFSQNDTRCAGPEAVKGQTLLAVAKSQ

compound: COC1=CC=C(C=C1)CN2C=CC3=C2C=C(C=C3)C(=O)NO; assay: log2 fold change, soluble protein after heating vs DMSO (PISA); higher = thermal stabilisation; K562 cells, 10 uM, 30 min; active = over 0.2 and 3.5 SD of the protein, either way, in both replicates (recomputed)
Procedure, shortened: (§1)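 Soluble protein was defined as the supernatant after 21,000xg for 90 min. It came from K562 cells at 2×10^6 cells/mL given 10 μM compound for 30 min, heated in aliquots for 3 min across 48°C-58°C, pooled, and extracted in PBS with 0.5% NP-40 at 4°C, and was quantified by TMTpro 16plex LC-MS/MS with equalised channel sums. Thermal stability against control samples, from duplicates, is reported as log2 fold change.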

Target | log2 fold change
LAS1L (UniProt Q9Y4W2) | inactive: -0.158
LPP (UniProt Q93052) | inactive: -0.394
LLGL1 (UniProt Q15334) | inactive: 0.03
LRP6 (UniProt O75581) | inactive: -0.08
LMO4 (UniProt P61968) | inactive: 0.155
LCMT2 (UniProt O60294) | inactive: -0.223
LRCH4 (UniProt O75427) | inactive: -0.106
LGALS8 isoform 2 (UniProt O00214) | inactive: 0.202
LLGL2 (UniProt Q6P1M3) | inactive: -0.067
LEPROTL1 isoform 2 (UniProt O95214) | inactive: -0.109
LIMK1 (UniProt P53667) | inactive: -0.077
LENG8 (UniProt Q96PV6) | inactive: 0.205
LGALSL (UniProt Q3ZCW2) | inactive: -0.227
LRRC4B (UniProt Q9NT99) | inactive: 0.053
LIN37 (UniProt Q96GY3) | inactive: 0.104
LPCAT4 (UniProt Q643R3) | inactive: -0.064
LCP2 (UniProt Q13094) | inactive: -0.058
L1TD1 (UniProt Q5T7N2) | inactive: -0.203
LANCL3 (UniProt Q6ZV70) | inactive: -0.009
LRFN1 (UniProt Q9P244) | inactive: -0.054
LAMP2 isoform 2 (UniProt P13473) | inactive: -0.049
LINS1 (UniProt Q8NG48) | inactive: -0.137
LETMD1 isoform 7 (UniProt Q6P1Q0) | inactive: 0
LRG1 (UniProt P02750) | inactive: -0.011
LRRC14 (UniProt Q15048) | inactive: 0.008

compound: CON(C)C(=O)N1N=C(c2cc(F)ccc2F)S[C@@]1(CCCN)c1ccccc1 [filanesib]; assay: as above
Procedure, shortened: as §1

Target | log2 fold change
LAS1L (UniProt Q9Y4W2) | inactive: 0.375
LMBRD1 (UniProt Q9NUN5) | active: -0.39
LPP (UniProt Q93052) | inactive: -0.623
LLGL1 (UniProt Q15334) | inactive: 0.049
LRP6 (UniProt O75581) | inactive: -0.003
LCMT2 (UniProt O60294) | inactive: -0.082
LRCH4 (UniProt O75427) | inactive: 0.302
LGALS8 isoform 2 (UniProt O00214) | inactive: 0.264
LIMK1 (UniProt P53667) | inactive: -0.014
LENG8 (UniProt Q96PV6) | inactive: 0
LIG3 (UniProt P49916) | inactive: -0.032
LRRC4B (UniProt Q9NT99) | inactive: 0.011
LIN37 (UniProt Q96GY3) | inactive: -0.211
LIPT2 (UniProt A6NK58) | inactive: 0.149
LCP2 (UniProt Q13094) | inactive: 0.014
LEG1 (UniProt Q6P5S2) | inactive: 0.233
LANCL3 (UniProt Q6ZV70) | inactive: 0.127
LRFN1 (UniProt Q9P244) | inactive: 0.151
LINS1 (UniProt Q8NG48) | inactive: -0.183
LETMD1 isoform 7 (UniProt Q6P1Q0) | inactive: -0.259
LAPTM4A (UniProt Q15012) | inactive: -0.352
LRG1 (UniProt P02750) | inactive: -0.199
LCN2 isoform 2 (UniProt P80188) | inactive: 0.083
LPIN3 isoform 2 (UniProt Q9BQK8) | inactive: 0.006

compound: CO[C@H]1C[C@@H]2CC[C@@H](C)[C@@](O)(O2)C(=O)C(=O)N2CCCC[C@H]2C(=O)O[C@H]([C@H](C)C[C@@H]2CC[C@H](n3cnnn3)[C@H](OC)C2)CC(=O)[C@H](C)/C=C(\C)[C@@H](O)[C@@H](OC)C(=O)[C@H](C)C[C@H](C)/C=C/C=C/C=C/1C [zotarolimus]; assay: as above
Procedure, shortened: as §1

Target | log2 fold change
LAS1L (UniProt Q9Y4W2) | inactive: 0.049
LMBRD1 (UniProt Q9NUN5) | inactive: 0.049
LLGL1 (UniProt Q15334) | inactive: 0.072
LRP6 (UniProt O75581) | inactive: -0.161
LMO4 (UniProt P61968) | inactive: -0.032
LCMT2 (UniProt O60294) | inactive: 0.005
LGALS8 isoform 2 (UniProt O00214) | inactive: 0.053
LLGL2 (UniProt Q6P1M3) | inactive: -0.203
LEPROTL1 isoform 2 (UniProt O95214) | inactive: -0.064
LENG8 (UniProt Q96PV6) | inactive: -0.061
LIG3 (UniProt P49916) | inactive: -0.075
LRRC4B (UniProt Q9NT99) | inactive: -0.026
LPCAT4 (UniProt Q643R3) | inactive: 0.028
L1TD1 (UniProt Q5T7N2) | inactive: -0.23
LEG1 (UniProt Q6P5S2) | inactive: 0.044
LANCL3 (UniProt Q6ZV70) | inactive: 0.047
LRFN1 (UniProt Q9P244) | inactive: 0.031
LAMP2 isoform 2 (UniProt P13473) | inactive: 0.022
LRG1 (UniProt P02750) | inactive: -0.043
LPIN3 isoform 2 (UniProt Q9BQK8) | inactive: 0.011
